# Some of the results follow.
# The chains behind the UniProt entries cited, without tags or fusion partners.
# UniProt Q0JBA9, entry or part of it: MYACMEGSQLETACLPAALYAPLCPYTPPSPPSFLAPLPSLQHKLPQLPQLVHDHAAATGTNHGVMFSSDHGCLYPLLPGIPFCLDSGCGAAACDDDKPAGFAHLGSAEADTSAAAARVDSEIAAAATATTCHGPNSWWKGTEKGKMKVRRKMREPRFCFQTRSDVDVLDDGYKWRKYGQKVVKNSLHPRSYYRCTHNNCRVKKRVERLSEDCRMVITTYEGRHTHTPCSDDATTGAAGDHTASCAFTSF
# Biological target: OsWRKY34 (Oryza sativa, UniProt Q0JBA9 1-250)
# Assay: protein-binding microarray (RPBM); PBS, 2% BSA, 51.3 ng/ul salmon testes DNA, 50 uM zinc acetate, 200 nM TF, 25 C, 1 h; high values mean tight binding
# Conditions: protein: recombinant; tags: N-terminal polyhistidine and DsRed monomer fusion (pET32a); label: CyDye5-dUTP incorporated in the synthesized complementary strand; 3' TTTTT single-stranded linker to array surface; dsDNA, one strand shown
# How it was run: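 Polyhistidine-tagged DsRed fusions of transcription factors, joined at the N-terminus, were expressed in E. coli BL21-CodonPlus and isolated on Ni–NTA. They were incubated at 200 nM for 1 h at 25 °C on a custom Agilent array, double-stranded and BSA-blocked, in PBS with 2% BSA, salmon testes DNA and 50 µM zinc acetate. The binding signal is per-feature fluorescence intensity (arbitrary units) read on an Axon 4000B scanner after washing.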
row,Sequence,binding signal
1,GAACTTTGGGTATCTCAATGGATTCGGGGTGCGGGTGCGACGGAGTCACCTAGTGCAG,10900 fluorescence intensity (a.u.)
2,TGCGACGACGTTTCTACTTCTAGATGCCCATATCCACTAGCGGAGTCACCTAGTGCAG,8210 fluorescence intensity (a.u.)
3,ACGGAGCAAAATCTCTCTCTGCCTTGCGGCTTGCGTTCCGCGGAGTCACCTAGTGCAG,8080 fluorescence intensity (a.u.)
4,ATATATATATATATATATATATAGAGAGAGAGAGAGAGACCGGAGTCACCTAGTGCAG,8980 fluorescence intensity (a.u.)
5,GACGCCGTTGACTTTTTGACCAACGTTTGACCTTTCGTCTCGGAGTCACCTAGTGCAG,31400 fluorescence intensity (a.u.)
6,CATCGCTTGTCATACACTATCCGCATTTACCTCTCACATGCGGAGTCACCTAGTGCAG,9810 fluorescence intensity (a.u.)
7,GGTCTGGTTCTTCTTGATGCGAGGCTAGCTGACGTTTTTTCGGAGTCACCTAGTGCAG,17200 fluorescence intensity (a.u.)
8,CTCTCTCTCTCTCTCTCTCTCTCTCTCCAACGCGCGCGCGCGGAGTCACCTAGTGCAG,8700 fluorescence intensity (a.u.)
9,GTTGGCCGATACATGTACTTATATATATATATATATATATCGGAGTCACCTAGTGCAG,8860 fluorescence intensity (a.u.)
10,CTCAAACCCTAGCCGTCCCAGCCTCGGCTTGACCAATGCCCGGAGTCACCTAGTGCAG,11500 fluorescence intensity (a.u.)
11,GTTGGTTTTCCTTAATTTACCGTGCTTTTGTAAATATTTTCGGAGTCACCTAGTGCAG,10400 fluorescence intensity (a.u.)
12,GTCATTTTAATTGCAAATGCTTTTATATGTTGTTTCTTTCCGGAGTCACCTAGTGCAG,9620 fluorescence intensity (a.u.)
13,GCCATGTGACTAGACCGAGCTAGCTCGCTCGATCGATCTCCGGAGTCACCTAGTGCAG,8510 fluorescence intensity (a.u.)
14,TCCTCCTCTCTCTCTCTCACTCTTGTCTCTATCGGCGGGGCGGAGTCACCTAGTGCAG,12500 fluorescence intensity (a.u.)
15,ACAATCGCTTCGCTTTTCGCTCTACTCGTACGATCGTTCCCGGAGTCACCTAGTGCAG,10300 fluorescence intensity (a.u.)
16,GCGAAATATCTTCTTATTCCTTCTAGAAATTTCTTTCACACGGAGTCACCTAGTGCAG,10000 fluorescence intensity (a.u.)
17,CTCTTATTCTTTCAGCCTGTCCGTCGTCTATCTGTCTGCACGGAGTCACCTAGTGCAG,9290 fluorescence intensity (a.u.)
18,TTCATCACTCGATCGATCTCCTCACTTCACACACAAGCTCCGGAGTCACCTAGTGCAG,9050 fluorescence intensity (a.u.)
19,TATTGTACCTGCTCTGAGCAGCTAGCTCCCGTACCACCATCGGAGTCACCTAGTGCAG,8670 fluorescence intensity (a.u.)
20,CCCATTCTTTCACTTTTGACCTTTTTTTATCATTTTGTTTCGGAGTCACCTAGTGCAG,9510 fluorescence intensity (a.u.)
21,AGTCTTGCTATTTATGGGCATTTTTCTGACATCCTAGCATCGGAGTCACCTAGTGCAG,9120 fluorescence intensity (a.u.)

row,Sequence,binding signal
1,TGCACTCACGTTTAGATCTGGTCCTGTACTGTTGAATTCCCGGAGTCACCTAGTGCAG,9890 fluorescence intensity (a.u.)
2,ACTTTTTCTTCAAACTTTCAAGTTTTACATCATATCAAAACGGAGTCACCTAGTGCAG,8740 fluorescence intensity (a.u.)
3,TCTGTTTATATTTCATGTCACTTTTCTTGTCCCTCGAATGCGGAGTCACCTAGTGCAG,9150 fluorescence intensity (a.u.)
4,TTCTTTTGTTGTCCAATTCATTTCCATTTCTTGCCGTTTTCGGAGTCACCTAGTGCAG,8320 fluorescence intensity (a.u.)
5,GACAACGTTATTTAGGCTGTGTTCGTTTGTGTGAGATAGGCGGAGTCACCTAGTGCAG,9900 fluorescence intensity (a.u.)
6,CTCCCCAATGTTGTGTTGGGACTTGGGACAGTGGGCTTTTCGGAGTCACCTAGTGCAG,8310 fluorescence intensity (a.u.)
7,GGTTTTGCCATAACCCACGTTCGCATTCACCCACATACATCGGAGTCACCTAGTGCAG,8410 fluorescence intensity (a.u.)
8,TCCACCCGTGCAGCCGCGCCGGCGACAGCCTCGATTATTCCGGAGTCACCTAGTGCAG,9310 fluorescence intensity (a.u.)
9,CCGTCTATTCTACGCTGTTAAATACATTGTTCGTCCTATTCGGAGTCACCTAGTGCAG,9370 fluorescence intensity (a.u.)
10,GTTTTTTTTAATACTCCTTTTTTTCCCTTTCATTTCATTTCGGAGTCACCTAGTGCAG,8700 fluorescence intensity (a.u.)
11,ATCGCCTCCTACCGCGCGTCCACCGGCCGACTGCCACTCGCGGAGTCACCTAGTGCAG,9120 fluorescence intensity (a.u.)
12,GGGTCGCAGGAAAGCTTCGGCTGGGTGGATGGGGATCACACGGAGTCACCTAGTGCAG,9370 fluorescence intensity (a.u.)
13,GGAAACTATTCTAATCTGTCGAGGGGATGTTCTCTCGTTTCGGAGTCACCTAGTGCAG,10500 fluorescence intensity (a.u.)
14,ACTCACCTTATTAGTCATCTTCCTTAGCCTTAAGCGTAAACGGAGTCACCTAGTGCAG,10300 fluorescence intensity (a.u.)
15,CGCTTACAGTCCACTCTCCACTGCGCCCGCATGAGTCATGCGGAGTCACCTAGTGCAG,8880 fluorescence intensity (a.u.)
16,TCTCCCATCCCATCCCATGCATCACTAGCGGATTTGTGGACGGAGTCACCTAGTGCAG,8940 fluorescence intensity (a.u.)
17,CCTTCACACCATATTGTTTCTTCACTTGGAGGGTTACCAACGGAGTCACCTAGTGCAG,15100 fluorescence intensity (a.u.)
18,TCTGCACTGGCCACCACTTTCCTCTGATGCACATGCTGACCGGAGTCACCTAGTGCAG,10400 fluorescence intensity (a.u.)
19,GTTTGCGTTTGTGTTCGTTTGGTCGCCGGCGGAAGCGATGCGGAGTCACCTAGTGCAG,8920 fluorescence intensity (a.u.)
20,AACGTGACTGTCCCATTATCTTGTGTCCACTTTATTTATACGGAGTCACCTAGTGCAG,10400 fluorescence intensity (a.u.)
21,AATGCACTCATTTTCTTCCCTATGCCTCTTCTCAGGGAGTCGGAGTCACCTAGTGCAG,8030 fluorescence intensity (a.u.)

# From publication PMC7819943, “Rice protein-binding microarrays: a tool to detect cis-acting elements near promoter regions in rice”
